From publication PMC10050154, “Coenzyme A binding sites induce proximal acylation across protein families” (Scientific Reports, 2023)
No constants are given. Whether binding was seen depends on the method and setting. Some entries that bind do so weakly or less than the wild type.

Biological target: T1, enoyl-CoA hydratase short chain 1 (ECHS1) (human), P30084
T1 chain: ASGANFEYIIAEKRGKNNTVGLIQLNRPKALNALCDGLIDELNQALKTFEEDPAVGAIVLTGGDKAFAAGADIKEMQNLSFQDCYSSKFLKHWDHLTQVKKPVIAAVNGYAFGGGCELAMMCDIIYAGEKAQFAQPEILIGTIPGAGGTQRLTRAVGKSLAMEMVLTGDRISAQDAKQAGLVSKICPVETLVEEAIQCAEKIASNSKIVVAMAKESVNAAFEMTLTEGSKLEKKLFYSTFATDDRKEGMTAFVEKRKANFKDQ
Assay: native gel or EMSA; native gel electrophoresis of purified recombinant ECHS1, detected by Western blot; both purified
Details: remark: other sources report otherwise

binding: binds
B1: enoyl-CoA hydratase short chain 1 (ECHS1), P30084 28-290 (enzyme)
chain: T1 chain
